The other results are listed elsewhere or left out. Repeats in this data set agree poorly, so a single value says little.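 FDA-approved drugs were each paired with colistin at one-eighth its MIC and screened against a multidrug-resistant, mcr-1-positive clinical E. coli isolate, with OD600 read after 24 h. Drug-free bacteria served as growth control, plain broth as blank. Combinations were active if OD600 dropped below 0.2.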
system: Escherichia coli 42 (mcr-1-positive clinical isolate); assay: OD600 after 24 h growth with compound plus colistin (absorbance units (OD600)); higher = more bacterial growth (less inhibition); conditions: first compound 25 µM; colistin concentration 0.5 ug/mL; incubation time 24 h; 37 °C

SMILES | OD600
Cc1cn([C@H]2C[C@H](N=[N+]=[N-])[C@@H](CO)O2)c(=O)[nH]c1=O [Zidovudine] + CCC(C)CCCC(=O)N[C@@H](CCN)C(=O)N[C@H](C(=O)N[C@@H](CCN)C(=O)N[C@H]1CCNC(=O)[C@H]([C@@H](C)O)NC(=O)[C@H](CCN)NC(=O)[C@H](CCN)NC(=O)[C@H](CC(C)C)NC(=O)[C@@H](CC(C)C)NC(=O)[C@H](CCN)NC1=O)[C@@H](C)O [colistin] | active: 0.035
CS(=O)(=O)CCNCc1ccc(-c2ccc3ncnc(Nc4ccc(OCc5cccc(F)c5)c(Cl)c4)c3c2)o1 [Lapatinib] + CCC(C)CCCC(=O)N[C@@H](CCN)C(=O)N[C@H](C(=O)N[C@@H](CCN)C(=O)N[C@H]1CCNC(=O)[C@H]([C@@H](C)O)NC(=O)[C@H](CCN)NC(=O)[C@H](CCN)NC(=O)[C@H](CC(C)C)NC(=O)[C@@H](CC(C)C)NC(=O)[C@H](CCN)NC1=O)[C@@H](C)O [colistin] | inactive: 0.911
CC(=O)OC(C)C[N+](C)(C)C (centres undefined) [Methacholine Chloride] + CCC(C)CCCC(=O)N[C@@H](CCN)C(=O)N[C@H](C(=O)N[C@@H](CCN)C(=O)N[C@H]1CCNC(=O)[C@H]([C@@H](C)O)NC(=O)[C@H](CCN)NC(=O)[C@H](CCN)NC(=O)[C@H](CC(C)C)NC(=O)[C@@H](CC(C)C)NC(=O)[C@H](CCN)NC1=O)[C@@H](C)O [colistin] | inactive: 1.04
Cn1cnc([N+](=O)[O-])c1Sc1ncnc2[nH]cnc12 [Azathioprine] + CCC(C)CCCC(=O)N[C@@H](CCN)C(=O)N[C@H](C(=O)N[C@@H](CCN)C(=O)N[C@H]1CCNC(=O)[C@H]([C@@H](C)O)NC(=O)[C@H](CCN)NC(=O)[C@H](CCN)NC(=O)[C@H](CC(C)C)NC(=O)[C@@H](CC(C)C)NC(=O)[C@H](CCN)NC1=O)[C@@H](C)O [colistin] | inactive: 1.17

From the supplement of paper PMC11546906
